Reference: article PMC4426700
Results are given in words; binding and its absence hold for the method and conditions named. Binding seen in cells or lysates may run through a third protein. Some entries that bind do so weakly or less than the wild type.

Target: p53 (human (endogenous in human stomach cancer cell lines)) (UniProt P04637)
Assay: co-IP; cell lysate immunoprecipitated with p53 antibody; YBX1 found in the precipitate; cell line and conditions not stated

- binding: binds
Substance: Y-box binding protein 1 (from UniProt P67809 1-324)
